The target in the experiment is RORc ligand binding domain (Homo sapiens, UniProt P51449). Put plainly: In vitro RORc ligand binding assay (25-[3H]hydroxycholesterol displacement, filter binding). The conditions noted are these: read-out: RORc IC50.

Protein sequences, listed by entry. Tags and fused reporters are not part of them. Residues count along the entry.
UniProt P51449, 269-508 limits assumed: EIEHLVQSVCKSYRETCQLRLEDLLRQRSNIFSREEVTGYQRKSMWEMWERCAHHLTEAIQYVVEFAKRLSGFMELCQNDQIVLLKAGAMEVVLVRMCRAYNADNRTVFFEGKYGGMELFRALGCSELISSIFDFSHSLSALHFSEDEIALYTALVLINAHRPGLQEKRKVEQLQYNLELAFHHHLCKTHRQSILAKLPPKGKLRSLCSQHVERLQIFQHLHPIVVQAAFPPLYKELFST

The structures given here were assigned with low confidence; some may be wrong.

Turning to `Cc1nc(N2CCO[C@@H]([C@@]34CC[C@@H](c5cc(-c6c(F)cccc6F)nnc53)C4(C)C)C2)n(Cc2ccccc2)n1`, the IC50 stood at 37 nM.
